# For at least one compound, name, drawing or mass did not settle the structure. Square brackets hold non-standard residues; d marks the D form. Peptide text beside a SMILES is read from it. pGlu = O=C1CC[C@@H](C(=O)O)N1
# Assay: Biological activity of G1
smiles,measurement,value
"CC(C)C[C@H](NC(=O)[C@H](Cc1c[nH]c2ccccc12)NC(=O)CNC(=O)[C@H](Cc1ccc(O)cc1)NC(=O)[C@H](C)NC(=O)[C@H](CCC(=O)O)NC(=O)[C@H](CCC(=O)O)NC(=O)[C@H](CCC(=O)O)NC(=O)[C@H](CCC(=O)O)NC(=O)[C@H](CCC(=O)O)NC(=O)[C@H](CC(C)C)NC(=O)[C@H](Cc1c[nH]c2ccccc12)NC(=O)[C@@H]1CCCN1C(=O)CNC(=O)[C@@H]1CCC(=O)N1)C(=O)N[C@@H](CC(=O)O)C(=O)N[C@@H](Cc1ccccc1)C(N)=O [G1, gastrin-17(leu) of SEQ ID NO. 4] ([pGlu]GPWLEEEEEAYGWLDF-NH2)",biological activity,full biological activity

# From patent US20100256061A1, “GASTRIN COMPOUND FOR DIABETES TREATMENT” (priority 2007, published 2010)
